These are yes or no findings as the source states them, for the method shown. Some results given as binding are weak or reduced against the parent protein; the word gives no strength.
Target: full length TRIM21 protein (T21FL) (human) (UniProt P19474)
Assay: SAXS

Protein sequences, listed by entry. Tags and fused reporters are not part of them.
UniProt P19474: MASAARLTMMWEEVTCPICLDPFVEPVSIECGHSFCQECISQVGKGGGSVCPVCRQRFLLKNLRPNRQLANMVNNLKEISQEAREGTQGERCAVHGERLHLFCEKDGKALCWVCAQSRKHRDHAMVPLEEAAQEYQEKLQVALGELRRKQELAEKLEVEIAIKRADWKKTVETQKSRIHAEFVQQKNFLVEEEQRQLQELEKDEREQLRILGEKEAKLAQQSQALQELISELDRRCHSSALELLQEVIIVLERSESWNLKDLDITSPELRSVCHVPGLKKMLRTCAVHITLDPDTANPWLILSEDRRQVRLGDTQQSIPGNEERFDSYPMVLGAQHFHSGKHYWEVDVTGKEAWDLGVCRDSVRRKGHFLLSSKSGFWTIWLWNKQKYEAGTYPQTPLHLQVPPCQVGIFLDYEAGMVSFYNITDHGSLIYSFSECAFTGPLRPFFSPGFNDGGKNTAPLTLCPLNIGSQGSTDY

- binding: binds
Substance: full length TRIM21 protein (T21FL) (from UniProt P19474 1-475) (other; other documents disagree on this pair)

Source: paper doi:10.1101/2020.07.28.225359 (bioRxiv, 2020)
